Results are given in words; binding and its absence hold for the method and conditions named. Binding seen in cells or lysates may run through a third protein. Here binding means that the protein was enriched with, or labelled near, the bait; the list need not be complete.

Amino acid sequences for entries named in this document (tags omitted). A change or cut given only in a name is not applied to a line headed by its entry.
UniProt F7VN14: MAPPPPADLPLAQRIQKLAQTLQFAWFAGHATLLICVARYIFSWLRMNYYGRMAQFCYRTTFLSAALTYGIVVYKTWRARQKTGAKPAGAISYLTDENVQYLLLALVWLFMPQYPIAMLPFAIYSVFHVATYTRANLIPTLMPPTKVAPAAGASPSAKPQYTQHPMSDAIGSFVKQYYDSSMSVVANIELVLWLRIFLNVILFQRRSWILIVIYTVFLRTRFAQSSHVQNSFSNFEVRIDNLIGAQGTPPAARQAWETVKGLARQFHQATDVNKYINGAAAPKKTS
UniProt F7WB25: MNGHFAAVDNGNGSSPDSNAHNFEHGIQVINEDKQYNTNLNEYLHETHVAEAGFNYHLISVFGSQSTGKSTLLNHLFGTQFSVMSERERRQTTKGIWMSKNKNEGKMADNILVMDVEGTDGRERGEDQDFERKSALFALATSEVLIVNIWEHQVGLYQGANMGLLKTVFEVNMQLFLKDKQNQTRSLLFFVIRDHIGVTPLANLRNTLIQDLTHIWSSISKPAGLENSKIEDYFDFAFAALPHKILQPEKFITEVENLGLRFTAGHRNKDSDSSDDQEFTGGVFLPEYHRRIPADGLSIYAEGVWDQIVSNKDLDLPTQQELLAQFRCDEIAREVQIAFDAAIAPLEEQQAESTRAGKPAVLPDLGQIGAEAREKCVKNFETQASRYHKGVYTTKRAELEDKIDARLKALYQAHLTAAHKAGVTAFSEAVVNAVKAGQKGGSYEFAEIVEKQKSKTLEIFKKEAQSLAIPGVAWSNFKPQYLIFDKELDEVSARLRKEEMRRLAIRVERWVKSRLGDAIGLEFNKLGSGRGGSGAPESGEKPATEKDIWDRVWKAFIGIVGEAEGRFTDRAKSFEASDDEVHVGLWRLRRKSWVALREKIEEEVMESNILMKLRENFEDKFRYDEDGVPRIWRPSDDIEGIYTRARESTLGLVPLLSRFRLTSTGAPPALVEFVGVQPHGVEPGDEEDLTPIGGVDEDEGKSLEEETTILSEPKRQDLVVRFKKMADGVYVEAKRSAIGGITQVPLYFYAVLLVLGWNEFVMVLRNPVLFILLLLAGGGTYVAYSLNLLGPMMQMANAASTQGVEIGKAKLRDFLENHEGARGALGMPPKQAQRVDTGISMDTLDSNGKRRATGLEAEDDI
UniProt F7VQK0: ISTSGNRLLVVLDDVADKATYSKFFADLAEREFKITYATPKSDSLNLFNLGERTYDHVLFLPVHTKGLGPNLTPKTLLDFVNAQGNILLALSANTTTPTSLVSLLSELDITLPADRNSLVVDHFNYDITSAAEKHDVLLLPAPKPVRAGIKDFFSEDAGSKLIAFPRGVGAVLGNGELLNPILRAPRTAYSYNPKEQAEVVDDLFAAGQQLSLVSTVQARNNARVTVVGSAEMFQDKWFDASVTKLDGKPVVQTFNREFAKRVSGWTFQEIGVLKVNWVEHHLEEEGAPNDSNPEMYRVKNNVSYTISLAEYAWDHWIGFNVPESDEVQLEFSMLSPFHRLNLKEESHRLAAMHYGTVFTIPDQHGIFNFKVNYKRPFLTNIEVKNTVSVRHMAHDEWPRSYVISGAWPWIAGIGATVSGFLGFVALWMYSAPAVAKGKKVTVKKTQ
UniProt F7W1K8: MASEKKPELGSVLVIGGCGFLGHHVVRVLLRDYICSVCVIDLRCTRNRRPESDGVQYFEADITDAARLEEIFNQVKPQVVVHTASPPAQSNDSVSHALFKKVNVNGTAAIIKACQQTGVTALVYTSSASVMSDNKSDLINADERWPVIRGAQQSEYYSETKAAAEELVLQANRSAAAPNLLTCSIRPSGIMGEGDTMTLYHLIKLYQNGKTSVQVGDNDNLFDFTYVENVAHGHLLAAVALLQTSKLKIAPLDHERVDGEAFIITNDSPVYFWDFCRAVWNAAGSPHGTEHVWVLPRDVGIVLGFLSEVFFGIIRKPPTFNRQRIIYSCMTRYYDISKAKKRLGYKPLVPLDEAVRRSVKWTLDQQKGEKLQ
UniProt F7VR85: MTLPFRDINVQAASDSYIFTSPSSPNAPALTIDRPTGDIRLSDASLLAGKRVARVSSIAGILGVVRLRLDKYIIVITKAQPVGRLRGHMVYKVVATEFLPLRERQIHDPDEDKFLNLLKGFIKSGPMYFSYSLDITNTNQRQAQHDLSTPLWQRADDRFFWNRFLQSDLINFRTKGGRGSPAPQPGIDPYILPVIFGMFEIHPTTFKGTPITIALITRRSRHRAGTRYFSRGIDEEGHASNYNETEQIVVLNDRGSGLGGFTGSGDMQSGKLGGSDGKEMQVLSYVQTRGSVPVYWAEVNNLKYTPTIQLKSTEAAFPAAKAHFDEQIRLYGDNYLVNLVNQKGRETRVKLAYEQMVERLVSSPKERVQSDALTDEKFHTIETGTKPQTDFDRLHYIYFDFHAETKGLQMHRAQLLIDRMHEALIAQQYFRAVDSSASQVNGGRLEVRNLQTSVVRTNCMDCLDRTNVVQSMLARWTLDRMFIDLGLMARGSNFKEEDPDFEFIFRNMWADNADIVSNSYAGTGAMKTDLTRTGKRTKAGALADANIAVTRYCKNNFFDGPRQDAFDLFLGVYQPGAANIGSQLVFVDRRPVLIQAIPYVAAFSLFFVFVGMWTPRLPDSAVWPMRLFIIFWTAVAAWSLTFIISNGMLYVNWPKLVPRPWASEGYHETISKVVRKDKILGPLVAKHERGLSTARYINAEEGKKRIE
UniProt F7VTB9: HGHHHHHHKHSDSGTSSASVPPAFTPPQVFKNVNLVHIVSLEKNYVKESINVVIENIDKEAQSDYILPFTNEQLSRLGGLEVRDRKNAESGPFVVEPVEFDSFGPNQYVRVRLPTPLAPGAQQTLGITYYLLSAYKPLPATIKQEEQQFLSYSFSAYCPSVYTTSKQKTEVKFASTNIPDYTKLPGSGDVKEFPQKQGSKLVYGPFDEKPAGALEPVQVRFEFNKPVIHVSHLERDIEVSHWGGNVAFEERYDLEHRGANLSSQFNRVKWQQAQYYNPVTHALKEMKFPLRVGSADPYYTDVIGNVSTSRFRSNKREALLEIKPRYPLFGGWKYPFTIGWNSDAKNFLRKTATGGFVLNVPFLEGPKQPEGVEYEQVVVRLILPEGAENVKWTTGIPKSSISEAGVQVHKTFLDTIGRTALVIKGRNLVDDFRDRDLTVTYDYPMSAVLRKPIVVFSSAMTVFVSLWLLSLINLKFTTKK
UniProt F7W1W1: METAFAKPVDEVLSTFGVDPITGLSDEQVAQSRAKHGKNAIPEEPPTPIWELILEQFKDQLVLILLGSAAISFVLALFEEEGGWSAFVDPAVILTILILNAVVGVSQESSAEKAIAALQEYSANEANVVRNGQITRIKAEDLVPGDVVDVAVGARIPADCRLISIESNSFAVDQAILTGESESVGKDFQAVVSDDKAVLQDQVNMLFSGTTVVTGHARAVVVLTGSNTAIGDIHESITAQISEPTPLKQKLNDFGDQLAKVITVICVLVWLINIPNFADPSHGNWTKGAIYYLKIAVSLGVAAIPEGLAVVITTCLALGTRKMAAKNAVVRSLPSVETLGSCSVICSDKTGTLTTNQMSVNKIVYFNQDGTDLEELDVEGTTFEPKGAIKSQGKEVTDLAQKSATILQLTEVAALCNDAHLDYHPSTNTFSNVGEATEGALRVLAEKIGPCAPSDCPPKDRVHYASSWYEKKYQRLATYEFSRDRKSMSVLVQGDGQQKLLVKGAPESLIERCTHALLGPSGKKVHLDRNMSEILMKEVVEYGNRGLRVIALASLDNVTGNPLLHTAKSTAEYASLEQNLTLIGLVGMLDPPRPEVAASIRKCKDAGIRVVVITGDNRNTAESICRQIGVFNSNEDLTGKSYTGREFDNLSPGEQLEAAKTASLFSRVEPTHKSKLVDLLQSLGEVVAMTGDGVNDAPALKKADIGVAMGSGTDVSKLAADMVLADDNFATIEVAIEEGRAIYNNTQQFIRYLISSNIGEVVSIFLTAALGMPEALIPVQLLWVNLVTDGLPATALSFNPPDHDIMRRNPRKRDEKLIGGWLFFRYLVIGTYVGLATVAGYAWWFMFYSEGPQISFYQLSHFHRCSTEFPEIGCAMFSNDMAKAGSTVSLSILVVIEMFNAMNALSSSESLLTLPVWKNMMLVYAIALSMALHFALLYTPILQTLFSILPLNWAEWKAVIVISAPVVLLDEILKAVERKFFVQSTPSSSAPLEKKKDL
UniProt F7VLY0: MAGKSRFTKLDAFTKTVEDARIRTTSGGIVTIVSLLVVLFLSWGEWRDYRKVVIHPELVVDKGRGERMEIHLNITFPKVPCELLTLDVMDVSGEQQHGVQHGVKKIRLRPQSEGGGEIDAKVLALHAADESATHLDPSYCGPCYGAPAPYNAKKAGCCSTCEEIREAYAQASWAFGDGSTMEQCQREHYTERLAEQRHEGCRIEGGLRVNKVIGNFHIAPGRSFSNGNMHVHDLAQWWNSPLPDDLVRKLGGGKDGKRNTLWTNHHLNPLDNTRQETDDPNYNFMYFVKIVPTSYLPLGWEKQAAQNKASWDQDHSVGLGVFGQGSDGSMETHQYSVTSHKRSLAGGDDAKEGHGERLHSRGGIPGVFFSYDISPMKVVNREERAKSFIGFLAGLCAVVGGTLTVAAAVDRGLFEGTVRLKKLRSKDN
UniProt F7W2Q6: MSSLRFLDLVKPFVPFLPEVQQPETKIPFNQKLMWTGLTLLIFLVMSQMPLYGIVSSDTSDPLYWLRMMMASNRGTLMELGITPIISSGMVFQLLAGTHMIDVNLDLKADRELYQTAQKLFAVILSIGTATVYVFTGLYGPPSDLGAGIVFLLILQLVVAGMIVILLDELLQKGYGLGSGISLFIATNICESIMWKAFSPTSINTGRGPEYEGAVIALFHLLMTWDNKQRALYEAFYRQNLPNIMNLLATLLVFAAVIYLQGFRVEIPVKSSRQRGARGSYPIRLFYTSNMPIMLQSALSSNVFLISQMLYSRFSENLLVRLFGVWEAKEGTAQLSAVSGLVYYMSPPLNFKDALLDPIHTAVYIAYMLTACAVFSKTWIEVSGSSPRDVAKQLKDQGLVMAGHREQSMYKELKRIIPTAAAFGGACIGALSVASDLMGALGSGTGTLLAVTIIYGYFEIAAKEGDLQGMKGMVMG

For 11 molecules, binding results are on record in article PMC8468769.

B1: cytochrome P450 51 (SMAC_05737) (protein, UniProt F7VT37 1-531)
chain: MGVLQVIAGPLSQQFSQLGTFSQIGVAIASFLFVAVALNVLQQFLFKKPNEPPLVFHWFPIIGSTITYGMDPPRFFKENREKYGDCFTFILLGKKTTVYVGPKGNDFILNGKIRDVNAEEIYTVLTTPVFGKDVVYDCPNSKLMEQKKFMKIALTTDAFRQYVPIISDEVTNYLKRSADFKGKSGIVDIPPKMAQITIFTASHALQGKEIRDKFDETLADLYHDLDMGFSPINFMLHWAPLPWNNRRDYAQRTVAKIYMDTIKERRARGETGAQDIMWHLMNSTYKGDVPVPDHEVAHMMIALLMAGQHSSSSTSSWIMLRLASRPDIMEDLYNEQVKALGADLPPLTYEDLAKLPLHAAIVKETLRLHAPIHSIMRAVKTPMPVPGTKYVIPTDHVLLAAPGVSATDECYFPQPELWEPRRWEKDSPLAPTIIRNVPAEEDDEKIDYGYGLVSKGANSPYLPFGAGRHRCIGEQFANVQLQTITAIIVRNFKFRNVDGSDKVIGTDYASLFSRPLEPAKIYWERREGCQL
B2: very-long-chain 3-oxoacyl-CoA reductase (SMAC_01146) (protein, UniProt F7VME1 1-339)
chain: MDKVAQVWGSVPQLWDSVPQYGQWALAGIGALYVATRVGAFLQLILNAFILSGTNLRKYGKKGTWAVVTGASDGLGKEFAQQLASKGFNLVLVSRTQSKLDTLARELELRWDGLKTKTFAMDFSKDDDSDYERLAELIKGLDIGILINNVGQSHSIPVPFLQTDRDELQNIVTINCLGTLKTTKVVAPILAQRKKGLILTMGSFAGVMPTPYLATYSGSKAFLQHWSSALSSELKDQGVDVHLVVSYLVTTAMSKIRRTSLLIPNPKQFVRSALGKVGLNSSEPFPNTYTPWWSHAVFKWVIENTVGVYSYFTLKLNKNMHVDIRNRALKKAAREAKKQ
B3: sterol 24-C methyltransferase (SMAC_01214) (protein, UniProt F7VQ64 1-382)
chain: MPSAPQVVALEKEDHQRDAEFKKVMHGDSAKAAGGVAALLKKNTEAQQIAVDEYFKHFDNKTAEGETQADREARTKEYATLTRHYYNLATDIYEYGWGQCFHFCRFSPGEPFYQAIARHEHYLASQIGIKKGMKVLDVGCGVGGPAREIAKFTDAHITGLNNNDYQIDRATHYAVRDGLSGQLKFVKGDFMQMSFPDNSFDAVYAIEATVHAPKLEGVYGEIYRVLKPGGVFGVYEWLMTDNYDNDNVEHRDIRLAIEVGNGISNMVPISEGLAAMKNVGFELLHHEDLADRNDPMPWYWPIAGELGYMQSYLDFFTVVRMTHTARRILHGFAGVLETVGLAPKGTKKTADALARGADGLVAGAKKNLFTPMYLMVGKKPLN

This assay addresses SmPOM33-TagRFP-T (Sordaria macrospora) (UniProt F7VN14). The assay can be described thus: affinity purification with mass spectrometry; POM33-TagRFP-T precipitated from S. macrospora mycelium lysate (lysis buffer without NP-40) with anti-TagRFP-T antibody and Protein G Dynabeads, 4 °C; control free TagRFP-T strain; LC/MS with label-free quantification, FDR 0.01, S0 0.1; two experiments, seven samples.
On to SEY1 (SMAC_08906) (from UniProt F7WB25), for which the binding result is reported as “binds”.
As to “dolichyl-diphosphooligosaccharide-protein glycosyltransferase subunit WBP1 (SMAC_01348) (from UniProt F7VQK0)”, the binding result is recorded as “binds”.
With “C-3 sterol dehydrogenase/C-4 decarboxylase (SMAC_04350) (from UniProt F7W1K8)”, the binding entry is “binds”.
Next, “putative phosphatidyl inositol 4-phosphatase SAC1 (SMAC_01583) (from UniProt F7VR85)”: “binds”; “dolichyl-diphosphooligosaccharide-protein glycosyltransferase subunit 1 (SMAC_05819) (from UniProt F7VTB9)”: “binds”; “calcium-transporting ATPase SmNCA1 (SMAC_04583) (from UniProt F7W1W1)”: “binds”.
With “homolog of the S. cerevisiae COPII-coated vesicle protein ERV46 (SAMC_04901) (from UniProt F7VLY0)”, the binding result is “binds”.
To “transport protein SEC61 subunit alpha (SMAC_05120) (from UniProt F7W2Q6 1-476)” belongs “binds”; to B1, “binds”.
As to B2, the binding entry is recorded as “binds”.
To B3 belongs “binds”.
